PubChem BioAssay AID652243, Drosophila RNAi Screening Center, 2013
Assay: 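Fly regulators of androgen-dependent reporter output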 (primary screen). Cell system: Drosophila S2R+ cells. Knock-down reagent: long dsRNA against Drosophila genes. Time to read-out: 72 h (48 h, then 24 h hormone). Conditions: synthetic androgen R1881 at 10 nM for 24 h. Measured: 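Per-well raw luminescence of the androgen-driven firefly reporter and of the Renilla control, two replicates each, without normalisation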. Reading the numbers: firefly reporter light: higher = more light from androgen-responsive reporter; Renilla control light: higher = more constitutive control signal (cell number, transfection). Call rule: 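Hit when the log firefly-to-Renilla ratio dropped or increased by a fixed fold versus the mean of GFP or LacZ controls across duplicate plates; lowering cut given as 1.5 and as 3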. Meaning of the calls: active = hit: reporter lowered or raised; inactive = no hit.
The deposit covers about 24,000 reagents; shown is a random part of those with a known target gene and a result. In the full data, 246 (1%) are marked active. 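Plates not normalised; calls are printed but the firefly/Renilla ratio behind them is not deposited; fold cut for lowering reported inconsistently.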 Raw values are not corrected between plates. A number with no mark means an inactive call. The numbers tell different reagents against one gene apart. A plus sign joins genes that one reagent is predicted to hit. Reagent sequences are not shown. Not stated in the record: the amount of reagent.

gene	reagent	firefly reporter light, replicate 1	firefly reporter light, replicate 2	Renilla control light, replicate 1	Renilla control light, replicate 2
CG12698	1	4.08e5	4.61e5	3.51e6	2.99e6
CG12698	2	5.22e5	5.28e5	3.51e5	5.35e5
CG4069	1	1.27e6	6.82e5	1.21e6	1.10e6
CG18371	1	78005	85413	1.65e6	1.65e6
5-HT1B	1	1.54e5	1.72e5	2.61e6	2.84e6
5-HT1B	2	13611	13158	45963	44960
5-HT1B	3	4.33e5	6.29e5	9.01e5	8.49e5
wntD	1	1.12e5	1.23e5	2.24e6	2.05e6
wntD	2	3.44e5	5.09e5	8.03e5	1.33e6
CG16800	1	2.05e5	2.20e5	9.91e5	1.45e6
CG16800	2	4.60e5	6.22e5	1.09e6	1.43e6
CG6277	1	1.37e5	1.57e5	2.61e6	2.95e6
CG6277	2	1.41e6	1.22e6	7.63e5	7.41e5
waw + bbx	1	6.97e5	4.42e5	5.90e5	5.14e5
Kap-alpha3	1	1.90e5	1.98e5	3.85e6	3.49e6
fne	1	2.63e5	2.03e5	2.45e6	2.20e6
fne	2	7.20e5	4.94e5	4.24e5	4.86e5
fne	3	4.35e5	4.13e5	3.32e5	3.03e5
CG5180	1	1.89e5	1.67e5	2.55e6	2.74e6
IFT52	1	2.30e5	2.06e5	1.90e6	1.16e6
IFT52	2	4.16e5	3.52e5	1.46e6	1.43e6
CG13359	1	2.74e5	3.00e5	4.12e6	3.43e6
CG13359	2	4.82e5	4.31e5	7.98e5	4.02e5
Rpp21	1	6.52e5	6.92e5	1.36e6	2.31e6
Rpp21	2	8.12e5	7.52e5	8.63e5	7.27e5
Oscillin	1	8.27e5	7.37e5	1.51e6	1.53e6
Oscillin	2	6.12e5	6.67e5	1.13e6	1.40e6
CG3323	1	1.53e5	1.83e5	2.74e6	2.94e6
Ppa	1	3.50e5	3.96e5	2.31e6	1.82e6
Ppa	2	4.68e5	3.90e5	1.32e6	1.27e6
hob	1	9.76e5	8.17e5	1.06e6	1.21e6
hob	2	1.13e6	9.91e5	1.13e6	1.00e6
whip	1	7.74e5	7.85e5	2.15e6	2.12e6
mRpL33	1	3.79e5	5.19e5	3.81e6	4.01e6
tou	1	9.89e5	7.07e5	1.10e6	7.08e5
tou	2	2.19e5	2.59e5	3.91e5	4.23e5
Prosbeta3	1	37277	27186	3.06e5	3.43e5
Acp53C14b	1	38786	70061	6.15e5	6.15e5
eys	1	81236	74478	7.44e5	5.60e5
eys	2	72787	89054	5.31e5	6.22e5
eys	3	9.23e5	7.38e5	3.94e6	2.41e6
POSH	1	1.22e5	1.28e5	2.86e6	2.86e6
Proc	1	6.35e5	9.43e5	3.58e5	5.82e5
CG6470	1	83484	87782	5.98e5	6.22e5
CG6470	2	4.15e5	3.25e5	6.14e5	7.70e5
CG15024	1	1.33e5	2.08e5	2.11e6	2.98e6
ppk14	1	2.13e5	1.50e5	1.85e6	1.55e6
CG32984	1	1.34e6	8.36e5	2.57e6	1.95e6
CG32984	2	3.67e5	4.46e5	1.64e6	1.79e6
CG32984	3	3.74e5	5.62e5	1.24e6	1.64e6
CG11125	1	1.46e5	1.41e5	1.39e6	1.37e6
PIG-K	1	2.30e5	2.20e5	3.20e6	2.16e6
CG5897	1	2.52e5	2.12e5	2.19e6	1.72e6
Edem1	1	78100	63851	5.73e5	4.37e5
RecQ4	1	1.69e5	1.24e5	1.81e6	1.31e6
RecQ4	2	3.36e5	3.08e5	6.81e5	8.26e5
Hsdl2	1	75153	78741	5.37e5	5.93e5
Hsdl2	2	5.52e5	6.82e5	1.30e6	1.50e6

10 entries from above, set out differently.
gene,reagent,"firefly reporter light, replicate 1","firefly reporter light, replicate 2","Renilla control light, replicate 1","Renilla control light, replicate 2"
whip,1,7.74e5,7.85e5,2.15e6,2.12e6
mRpL33,1,3.79e5,5.19e5,3.81e6,4.01e6
tou,1,9.89e5,7.07e5,1.10e6,7.08e5
tou,2,2.19e5,2.59e5,3.91e5,4.23e5
Prosbeta3,1,37277,27186,3.06e5,3.43e5
Acp53C14b,1,38786,70061,6.15e5,6.15e5
eys,1,81236,74478,7.44e5,5.60e5
eys,2,72787,89054,5.31e5,6.22e5
eys,3,9.23e5,7.38e5,3.94e6,2.41e6
POSH,1,1.22e5,1.28e5,2.86e6,2.86e6
